Results as given in the supplement of paper PMC11006884.
What follows is the remainder of the data, with few or none of the targets with a hit. This is a noisy data set. The list shows a part of the results, in another mix than the full data.

Chains of the proteins cited; added tags and fusions are not shown. Lines headed by an entry give the natural chain unless they say otherwise; changes in a name come on top.
UniProt Q9UNH7: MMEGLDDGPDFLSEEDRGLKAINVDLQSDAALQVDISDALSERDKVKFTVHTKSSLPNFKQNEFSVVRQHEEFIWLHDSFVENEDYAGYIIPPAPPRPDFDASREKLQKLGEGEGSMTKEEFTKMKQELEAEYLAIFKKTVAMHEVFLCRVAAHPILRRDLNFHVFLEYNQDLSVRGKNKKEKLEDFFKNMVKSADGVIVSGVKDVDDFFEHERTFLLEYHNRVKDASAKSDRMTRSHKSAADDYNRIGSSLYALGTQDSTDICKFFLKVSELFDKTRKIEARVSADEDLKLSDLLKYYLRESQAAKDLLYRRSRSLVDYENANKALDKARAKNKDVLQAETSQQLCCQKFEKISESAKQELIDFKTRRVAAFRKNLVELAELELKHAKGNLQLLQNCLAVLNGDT
UniProt Q9Y305: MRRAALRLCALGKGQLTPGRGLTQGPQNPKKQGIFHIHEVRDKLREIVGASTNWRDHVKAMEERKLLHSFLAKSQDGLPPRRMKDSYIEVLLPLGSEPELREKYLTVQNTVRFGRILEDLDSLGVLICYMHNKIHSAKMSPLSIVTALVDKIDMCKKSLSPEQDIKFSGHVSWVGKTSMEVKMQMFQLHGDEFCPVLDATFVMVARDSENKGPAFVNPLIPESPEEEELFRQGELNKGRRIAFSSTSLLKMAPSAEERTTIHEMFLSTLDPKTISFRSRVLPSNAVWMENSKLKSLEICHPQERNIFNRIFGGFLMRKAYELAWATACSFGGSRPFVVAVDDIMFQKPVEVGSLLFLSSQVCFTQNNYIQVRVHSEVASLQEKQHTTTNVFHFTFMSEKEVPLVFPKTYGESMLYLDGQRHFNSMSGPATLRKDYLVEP
UniProt Q9Y315: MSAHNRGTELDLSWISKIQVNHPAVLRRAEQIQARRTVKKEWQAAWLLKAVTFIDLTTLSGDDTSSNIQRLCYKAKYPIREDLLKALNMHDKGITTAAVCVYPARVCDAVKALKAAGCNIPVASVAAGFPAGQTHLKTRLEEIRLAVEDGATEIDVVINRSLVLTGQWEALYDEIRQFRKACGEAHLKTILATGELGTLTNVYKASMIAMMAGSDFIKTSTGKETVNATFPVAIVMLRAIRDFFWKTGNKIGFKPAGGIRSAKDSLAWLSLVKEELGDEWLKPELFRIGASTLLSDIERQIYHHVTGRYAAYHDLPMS
UniProt Q9Y2I1: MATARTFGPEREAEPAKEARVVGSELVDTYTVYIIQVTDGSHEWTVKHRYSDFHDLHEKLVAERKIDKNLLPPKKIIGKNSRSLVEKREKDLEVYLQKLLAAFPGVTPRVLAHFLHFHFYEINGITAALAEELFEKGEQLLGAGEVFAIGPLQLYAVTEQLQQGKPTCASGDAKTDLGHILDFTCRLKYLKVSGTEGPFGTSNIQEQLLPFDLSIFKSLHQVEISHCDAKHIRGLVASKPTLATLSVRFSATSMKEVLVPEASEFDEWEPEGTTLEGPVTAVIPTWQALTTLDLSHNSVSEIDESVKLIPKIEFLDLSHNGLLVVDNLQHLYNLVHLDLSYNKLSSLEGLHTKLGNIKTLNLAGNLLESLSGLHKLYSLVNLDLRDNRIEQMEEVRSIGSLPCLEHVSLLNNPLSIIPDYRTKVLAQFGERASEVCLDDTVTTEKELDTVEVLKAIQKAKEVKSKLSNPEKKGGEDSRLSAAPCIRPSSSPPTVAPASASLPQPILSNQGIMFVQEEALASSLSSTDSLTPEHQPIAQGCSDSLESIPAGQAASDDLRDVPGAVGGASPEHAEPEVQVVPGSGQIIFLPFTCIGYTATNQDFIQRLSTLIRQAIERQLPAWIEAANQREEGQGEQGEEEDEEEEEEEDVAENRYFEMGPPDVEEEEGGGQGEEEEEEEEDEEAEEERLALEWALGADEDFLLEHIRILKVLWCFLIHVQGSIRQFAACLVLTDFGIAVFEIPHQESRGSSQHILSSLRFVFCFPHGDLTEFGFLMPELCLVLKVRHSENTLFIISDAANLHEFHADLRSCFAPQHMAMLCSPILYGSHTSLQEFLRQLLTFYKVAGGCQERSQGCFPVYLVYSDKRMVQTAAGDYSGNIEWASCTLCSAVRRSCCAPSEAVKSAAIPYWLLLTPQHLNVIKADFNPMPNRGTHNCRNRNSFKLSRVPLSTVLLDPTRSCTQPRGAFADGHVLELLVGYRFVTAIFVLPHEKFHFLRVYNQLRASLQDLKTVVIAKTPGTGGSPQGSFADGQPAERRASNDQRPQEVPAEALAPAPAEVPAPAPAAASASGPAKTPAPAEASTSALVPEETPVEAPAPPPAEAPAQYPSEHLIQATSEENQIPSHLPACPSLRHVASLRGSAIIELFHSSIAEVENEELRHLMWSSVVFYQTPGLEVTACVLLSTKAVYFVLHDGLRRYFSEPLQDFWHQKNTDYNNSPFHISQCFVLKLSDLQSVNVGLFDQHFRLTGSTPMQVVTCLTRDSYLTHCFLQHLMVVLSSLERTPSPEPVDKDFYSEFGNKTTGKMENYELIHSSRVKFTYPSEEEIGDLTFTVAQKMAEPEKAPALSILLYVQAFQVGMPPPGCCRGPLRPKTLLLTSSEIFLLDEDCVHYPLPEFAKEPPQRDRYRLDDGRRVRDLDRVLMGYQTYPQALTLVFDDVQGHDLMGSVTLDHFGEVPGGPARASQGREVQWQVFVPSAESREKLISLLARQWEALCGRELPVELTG
UniProt Q9ULF5: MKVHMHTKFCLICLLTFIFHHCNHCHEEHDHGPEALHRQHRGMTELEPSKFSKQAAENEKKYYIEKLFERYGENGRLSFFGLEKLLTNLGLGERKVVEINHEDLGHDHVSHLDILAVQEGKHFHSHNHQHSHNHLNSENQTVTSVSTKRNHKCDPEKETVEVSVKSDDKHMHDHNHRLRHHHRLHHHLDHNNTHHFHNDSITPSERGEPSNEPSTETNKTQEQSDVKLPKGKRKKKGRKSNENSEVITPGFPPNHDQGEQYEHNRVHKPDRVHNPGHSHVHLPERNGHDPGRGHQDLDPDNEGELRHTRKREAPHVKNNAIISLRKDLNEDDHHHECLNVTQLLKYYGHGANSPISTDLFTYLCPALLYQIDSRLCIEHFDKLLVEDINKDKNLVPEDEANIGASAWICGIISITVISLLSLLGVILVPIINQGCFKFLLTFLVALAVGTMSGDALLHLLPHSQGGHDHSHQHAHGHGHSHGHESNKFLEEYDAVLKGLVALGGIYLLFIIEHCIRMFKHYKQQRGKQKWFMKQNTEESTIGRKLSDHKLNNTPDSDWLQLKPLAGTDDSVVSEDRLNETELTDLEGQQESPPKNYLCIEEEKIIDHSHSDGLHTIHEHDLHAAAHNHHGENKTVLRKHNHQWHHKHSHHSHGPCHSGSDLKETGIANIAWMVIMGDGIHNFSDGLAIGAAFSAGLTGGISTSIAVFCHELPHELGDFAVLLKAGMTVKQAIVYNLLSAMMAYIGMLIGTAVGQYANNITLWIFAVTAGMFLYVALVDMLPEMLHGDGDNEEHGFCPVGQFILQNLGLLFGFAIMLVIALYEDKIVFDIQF
UniProt Q9UJU6: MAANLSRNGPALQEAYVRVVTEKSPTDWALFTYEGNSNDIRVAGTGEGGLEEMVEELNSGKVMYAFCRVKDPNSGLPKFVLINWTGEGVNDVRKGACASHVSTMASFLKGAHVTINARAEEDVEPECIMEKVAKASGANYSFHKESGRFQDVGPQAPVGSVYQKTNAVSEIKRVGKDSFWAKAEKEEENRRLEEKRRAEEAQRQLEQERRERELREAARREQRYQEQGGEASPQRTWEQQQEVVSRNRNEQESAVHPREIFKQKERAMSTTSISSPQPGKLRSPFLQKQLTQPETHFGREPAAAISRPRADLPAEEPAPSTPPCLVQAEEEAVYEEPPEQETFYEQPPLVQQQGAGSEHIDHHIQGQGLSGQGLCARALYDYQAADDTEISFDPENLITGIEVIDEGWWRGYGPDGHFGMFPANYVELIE
UniProt Q9UIF9: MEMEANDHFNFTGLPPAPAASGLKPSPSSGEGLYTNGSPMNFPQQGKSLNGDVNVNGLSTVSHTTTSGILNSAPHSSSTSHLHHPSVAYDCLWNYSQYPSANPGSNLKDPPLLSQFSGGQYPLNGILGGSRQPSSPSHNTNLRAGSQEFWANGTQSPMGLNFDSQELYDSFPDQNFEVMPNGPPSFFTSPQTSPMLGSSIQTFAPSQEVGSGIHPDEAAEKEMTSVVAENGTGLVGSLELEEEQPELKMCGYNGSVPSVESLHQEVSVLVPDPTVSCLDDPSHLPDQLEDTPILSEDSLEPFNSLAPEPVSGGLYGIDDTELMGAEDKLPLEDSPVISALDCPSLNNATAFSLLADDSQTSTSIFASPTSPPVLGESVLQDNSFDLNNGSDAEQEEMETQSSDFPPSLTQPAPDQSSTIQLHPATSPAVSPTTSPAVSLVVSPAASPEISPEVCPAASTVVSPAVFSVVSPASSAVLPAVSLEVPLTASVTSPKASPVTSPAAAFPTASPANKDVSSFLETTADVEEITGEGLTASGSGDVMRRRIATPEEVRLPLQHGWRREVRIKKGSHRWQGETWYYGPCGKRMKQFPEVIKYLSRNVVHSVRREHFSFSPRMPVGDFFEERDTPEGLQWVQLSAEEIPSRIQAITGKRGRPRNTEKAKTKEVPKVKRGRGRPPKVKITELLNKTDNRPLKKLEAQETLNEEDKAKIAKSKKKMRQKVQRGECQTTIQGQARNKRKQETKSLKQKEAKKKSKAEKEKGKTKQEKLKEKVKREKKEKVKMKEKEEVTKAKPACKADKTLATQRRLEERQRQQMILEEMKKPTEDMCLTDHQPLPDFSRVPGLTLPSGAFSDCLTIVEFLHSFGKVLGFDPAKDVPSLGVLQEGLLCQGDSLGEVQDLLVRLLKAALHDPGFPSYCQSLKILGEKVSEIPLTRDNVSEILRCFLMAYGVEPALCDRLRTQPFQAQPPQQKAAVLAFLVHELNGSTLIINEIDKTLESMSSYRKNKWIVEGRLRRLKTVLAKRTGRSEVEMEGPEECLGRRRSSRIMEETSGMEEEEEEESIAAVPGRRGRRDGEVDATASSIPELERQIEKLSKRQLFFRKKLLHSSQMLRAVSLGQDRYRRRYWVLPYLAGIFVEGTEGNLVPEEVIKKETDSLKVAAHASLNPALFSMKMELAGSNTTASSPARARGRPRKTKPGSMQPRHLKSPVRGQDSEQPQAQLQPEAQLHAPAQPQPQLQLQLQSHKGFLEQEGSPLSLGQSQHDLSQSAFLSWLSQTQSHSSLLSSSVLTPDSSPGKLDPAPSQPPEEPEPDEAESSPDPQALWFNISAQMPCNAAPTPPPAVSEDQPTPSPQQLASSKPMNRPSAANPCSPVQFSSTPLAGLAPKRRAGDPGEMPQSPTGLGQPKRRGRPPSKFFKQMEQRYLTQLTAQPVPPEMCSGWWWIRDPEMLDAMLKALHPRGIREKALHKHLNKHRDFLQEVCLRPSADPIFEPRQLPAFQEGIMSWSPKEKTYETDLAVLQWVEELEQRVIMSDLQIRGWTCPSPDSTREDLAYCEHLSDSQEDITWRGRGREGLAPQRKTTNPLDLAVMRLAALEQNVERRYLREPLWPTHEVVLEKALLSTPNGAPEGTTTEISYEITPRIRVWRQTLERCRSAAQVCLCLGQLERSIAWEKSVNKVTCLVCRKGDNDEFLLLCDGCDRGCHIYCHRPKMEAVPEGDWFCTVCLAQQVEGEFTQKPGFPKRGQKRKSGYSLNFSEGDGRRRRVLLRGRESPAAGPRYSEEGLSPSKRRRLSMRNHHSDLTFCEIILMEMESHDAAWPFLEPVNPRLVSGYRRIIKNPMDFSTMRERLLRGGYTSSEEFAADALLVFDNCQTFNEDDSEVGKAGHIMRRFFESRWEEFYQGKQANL
UniProt Q9Y2Z2: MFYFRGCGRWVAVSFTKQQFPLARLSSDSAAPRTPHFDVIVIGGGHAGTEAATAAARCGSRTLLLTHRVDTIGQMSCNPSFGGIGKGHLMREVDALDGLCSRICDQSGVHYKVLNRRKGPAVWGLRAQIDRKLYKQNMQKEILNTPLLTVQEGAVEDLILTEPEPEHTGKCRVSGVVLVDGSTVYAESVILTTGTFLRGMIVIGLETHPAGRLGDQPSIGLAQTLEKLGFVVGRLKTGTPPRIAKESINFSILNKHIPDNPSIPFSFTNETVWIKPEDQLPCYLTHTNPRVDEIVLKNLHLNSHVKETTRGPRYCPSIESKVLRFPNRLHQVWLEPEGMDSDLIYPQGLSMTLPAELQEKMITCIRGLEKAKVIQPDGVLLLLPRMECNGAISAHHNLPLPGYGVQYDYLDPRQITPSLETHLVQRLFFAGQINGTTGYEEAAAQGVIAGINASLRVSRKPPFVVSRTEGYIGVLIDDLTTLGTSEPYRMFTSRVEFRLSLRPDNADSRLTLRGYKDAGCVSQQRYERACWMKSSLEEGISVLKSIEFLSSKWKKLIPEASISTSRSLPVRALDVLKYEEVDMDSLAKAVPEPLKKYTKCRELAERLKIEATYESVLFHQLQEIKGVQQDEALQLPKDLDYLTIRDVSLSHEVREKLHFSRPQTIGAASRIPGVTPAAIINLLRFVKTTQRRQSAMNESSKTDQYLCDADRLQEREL

Compound: COC(=O)/C=C/c1ccccc1 [methyl cinnamate]
Assay: log2 ratio of iodoacetamide-alkyne labeling of the cysteine site, DMSO over compound (competition); higher = stronger covalent engagement of the cysteine by the compound, active = 1 or more
Conditions: 500 µM; treatment time 1 h; system: HEK293T cell lysate
Summary of the method: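 The log2 competition ratio per cysteine is defined as mean reporter intensity in control channels over mean reporter intensity in compound channels. Lysate from HEK293T cells (2 mg/mL) received electrophile (500 µM) or vehicle for 1 h at ambient temperature, followed by iodoacetamide alkyne for 1 h. Samples were clicked to sCIP-TMT reagents, pooled, trypsin-digested overnight at 37 °C, streptavidin-enriched, acid-eluted and run on Orbitrap Eclipse LC-MS/MS with FAIMS, with quantification in FragPipe. Three replicates with duplicate channels were used, and any cysteine quantified in only one replicate was excluded.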

log2 ratio of iodoacetamide-alkyne labeling, inactive:
SNX6 C264 (UniProt Q9UNH7) -0.148
INO80 C1049 (UniProt Q9ULG1) 0.00564
BCAP29 C171 (UniProt Q9UHQ4) 0.41
USP22 C189 (UniProt Q9UPT9) -0.0563
SRRM2 C1016 (UniProt Q9UQ35) 0.705
HERC5 C468 (UniProt Q9UII4) 0.249
VPS51 C254 (UniProt Q9UID3) 0.671
NOB1 C147 (UniProt Q9ULX3) 0.152
NOTCH3 C134 (UniProt Q9UM47) 0.0769
HERC5 C424 (UniProt Q9UII4) 0.185
UniProt Q9UHJ3_C142 0.0143
ACIN1 C1052 (UniProt Q9UKV3) 0.0664
MACF1 C7344 (UniProt Q9UPN3) 0.0878
MRPS16 C41 (UniProt Q9Y3D3) -0.0519
ACOT9 C155 (UniProt Q9Y305) 0.0895
PRR12 C322 (UniProt Q9ULL5) 0.0745
DERA C118 (UniProt Q9Y315) -0.178
TRMT6 C492 (UniProt Q9UJA5) 0.39
GMEB2 C323 (UniProt Q9UKD1) -0.0237
UniProt Q9Y3B4_C83 0.0635
BAG5 C157 (UniProt Q9UL15) 0.292
NISCH C403 (UniProt Q9Y2I1) -0.15
PRPF19 C298 (UniProt Q9UMS4) 0.0709
SHPK C105 (UniProt Q9UHJ6) -0.0929
MAGED2 C516 (UniProt Q9UNF1) 0.158
NCKAP1 C599 (UniProt Q9Y2A7) -0.0148
MED23 C1043 (UniProt Q9ULK4) 0.486
CPSF3 C223 (UniProt Q9UKF6) 0.0639
MRPS7 C152 (UniProt Q9Y2R9) 0.0201
SLC39A10 C153 (UniProt Q9ULF5) 0.912
LSM7 C76 (UniProt Q9UK45) 0.289
STRAP C305 (UniProt Q9Y3F4) 0.542
DBNL C97 (UniProt Q9UJU6) 0.24
BAZ2A C943 (UniProt Q9UIF9) 0.388
MTO1 C77 (UniProt Q9Y2Z2) 0.0953
RUVBL1 C141 (UniProt Q9Y265) 0.477
SAMHD1 C522 (UniProt Q9Y3Z3) 0.2

A run of entries of the results above, for reference:
log2 ratio of iodoacetamide-alkyne labeling, inactive:
UniProt Q9Y3B4_C83 0.0635
BAG5 C157 (UniProt Q9UL15) 0.292
NISCH C403 (UniProt Q9Y2I1) -0.15
